Measurements published in patent publication US20150315212A1, “SUBSTITUTED 1,4-DITHIINE DERIVATIVES AND THEIR USE AS FUNGICIDES” (BASF SE, priority 2012, published 2015).
Some of these results come from one statement about several compounds together.

How the values were obtained:
Phakopsora pachyrhizi = experiment: Protective control of soy bean rust on soy beans (Example 1); format: in vivo; conditions: 500 ppm, sprayed to run-off 1 day before inoculation, soy bean seedlings, assessed after fourteen days; untreated plants 90% infected
Phytophthora infestans = format: in vivo; conditions: 500 ppm, sprayed the day before inoculation, tomato seedlings, assessed after 6 days; untreated plants 90% infected

Substance: 6-Methyl-5H-Pyrrolo[3″,4″:5,6][1,4]dithiino-[2,3-C]isothiazole-3-carbonitrile-5,7(6H)-dione [Example 1.1]
- infection (% diseased leaf area) (Phakopsora pachyrhizi): less than or equal to 7%
- infection (% diseased leaf area) (Phytophthora infestans): less than or equal to 0%
